# In PubChem BioAssay AID504834 (National Center for Advancing Translational Sciences (NCATS), 2011):
# About 22,000 (6.9%) of roughly 320,000 compounds were called active. Inconclusive results, whose numbers are uncertain, are shown with a selection of clear calls. Calls follow the shape of the dose curve; as a rule, active = well fitted inhibition curve with a large enough effect; inconclusive = small, poorly fitted or top-dose-only effect, or another doubt; inactive = no such curve, though single readings can be large or run the other way. Potencies of inconclusive entries are doubtful fits and often do not repeat.
# Assay: Primary qHTS for delayed death inhibitors of the malarial parasite plastid, 96 hour incubation
# Conditions: P. falciparum luciferase reporter growth; series mostly up to 28.7 µM
# Method in brief: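 Luminescence readout: decreased luciferase signal marks inhibited growth of reporter-expressing P. falciparum in infected red cells (2% hematocrit, 0.05% parasitemia final), exposed to compound two generations (96 h, 37 C, 5% CO2).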
# % is scaled to controls: 0 for no effect and ±100 for the full control effect; potency is read from the fitted curve at half-maximal effect.
SMILES,Potency,"activity change, negative = inhibition"
CCOc1cc(-c2n[nH]c(=S)n2Cc2ccccc2)ccc1OC(F)F,"inconclusive: 1.04 µM [inhibitor, partial curve, poor fit]",
O=C(Nc1ccccc1)N1CCN(c2ccccn2)CC1,"inconclusive: 11.7 µM [inhibitor, single point]",
Cc1ccc(NC(=O)c2oc3ccccc3c2NC(=O)c2ccc3c(c2)OCO3)cc1,inactive,
CCOc1cc(NC(=O)C2CC2)c(OCC)cc1NC(=O)c1cccnc1,"inconclusive: 18.5 µM [inhibitor, single point]",
COCCn1c(SCC(=O)Nc2ccc(OC)cc2)nc2c(oc3ccccc32)c1=O,"inconclusive: 4.15 µM [inhibitor, partial curve, poor fit]",
COc1ccccc1C(=O)OCC(=O)c1cccc([N+](=O)[O-])c1,inactive,
Cc1ccc2nc(NC(=O)c3ccccc3F)sc2c1,"inconclusive: 18.5 µM [inhibitor, single point]",
Cc1onc(-c2ccccc2)c1C(=O)NC1CCC(C)CC1 (stereo not given),"inconclusive: 18.5 µM [inhibitor, single point]",
Cc1ccc(-n2c(=O)c3ccc(C(=O)NCc4ccco4)cc3n(Cc3ccccc3C#N)c2=O)cc1,"inconclusive: 11.7 µM [inhibitor, single point]",
COc1ccc(NC(=O)CN2C(=O)C(c3ccccc3)=NC23CCCCCC3)cc1,"inconclusive: 10.4 µM [inhibitor, partial curve]",
CCOC(=O)/C=C/C(=O)N1CCc2ccccc21,inactive,
Cc1ccc(CNC(=O)C2CCCN2C(=O)NCc2ccccc2)cc1 (stereo not given),"inconclusive: 0.0586 µM [inhibitor, full curve, poor fit]",
COc1ccc(C2/C=C\CN(C(=O)C3CC3)CC(=O)N2Cc2ccc(F)cc2)cc1 (stereo not given),inactive,
O=C(C1CCN(S(=O)(=O)c2cccc3nsnc23)CC1)N1CCc2ccccc2C1,inactive,
COc1ccc(OC)c(NC(=O)NC2CCCc3ccccc32)c1 (stereo not given),"inconclusive: 13.1 µM [inhibitor, partial curve]",
CCOC(=O)c1ccc(-n2c(C)ccc2C)cc1,active: 7.38 µM,
CN1CCN(C(=O)c2ccc3c(=O)n(Cc4ccc(Cl)cc4)c(=S)[nH]c3c2)CC1,"inconclusive: 16.5 µM [inhibitor, single point]",
O=C(N[C@@H](Cc1ccccc1)C(=O)OCc1ccccc1)c1nc[nH]c1C(=O)NCc1ccccc1,"inconclusive: 10.4 µM [inhibitor, partial curve]",
CCN(CC)CCCOC(=O)c1ccc(OC)cc1O,inactive,
Cc1ccc(S(=O)(=O)N2CCCCC2)cc1NC(=O)c1ccncc1,"inconclusive: 18.5 µM [inhibitor, partial curve, poor fit]",
O=C(COc1ccccc1)NCC(=O)Nc1cccc2ccccc12,inactive,
CCCSc1ccc([C@@H]2[C@H]3C(=O)N(CC)C(=O)[C@H]3[C@]3(C(=O)OC)CCCCN23)cc1,active: 7.38 µM,
Cc1ccc(/C=C2\SC(N3CCCCC3)=NC2=O)cc1,inactive,
CCC(C)Sc1ccc(-c2nc3ccc(C)cn3c2NCc2ccccc2)cc1OC (stereo not given),active: 4.65 µM,

SMILES,Potency,"activity change, negative = inhibition"
O=C1c2ccccc2C(Nc2ccc3c(c2)OCO3)N1Cc1ccc2c(c1)OCO2 (stereo not given),active: 3.29 µM,
CCN(C(=O)CSc1nnc(-c2c[nH]c3ccccc23)n1C1CC1)C1CCS(=O)(=O)C1 (stereo not given),"inconclusive: 18.5 µM [inhibitor, single point]",
CCCCCCn1c(Br)nc2c1c(=O)n(C)c(=O)n2C,"inconclusive: 6.57 µM [inhibitor, partial curve, poor fit]",
NC(=O)CC(NC(=O)Cc1cccc2ccccc12)c1ccc(NCCN2CCCC2)c([N+](=O)[O-])c1 (stereo not given),"inconclusive: 11.7 µM [inhibitor, partial curve, poor fit]",
CCOc1ccc(NC(=O)C2CC(=O)N(Cc3ccco3)C2)cc1 (stereo not given),inactive,
COc1cc(SC)ccc1C(=O)OCC(=O)NC1CCCCC1,inactive,
Cn1c(SCC(=O)n2c3c(c4ccccc42)CCCC3)nnc1-c1ccccc1,"inconclusive: 13.1 µM [inhibitor, single point]",
COc1ccc(OCCSc2nnc3c(Cl)cc(Cl)cn23)cc1,"inconclusive: 11.7 µM [inhibitor, single point]",
COc1ccccc1-c1cc(C(=O)Nc2cc(C)nn2-c2ccccc2)no1,"inconclusive: 11.7 µM [inhibitor, single point]",
Cc1ccc(C)c(SCC(=O)Nc2cc(S(=O)(=O)N3CCOCC3)ccc2C)c1,"inconclusive: 10.4 µM [inhibitor, single point]",
Cn1c(=O)c2c(ncn2CC(=O)Nc2nccs2)n(C)c1=O,inactive,
CC(=O)c1ccc(NC(=O)[C@@H]2CCCN2C(=O)OC(C)(C)C)cc1,inactive,
COc1ccc(/C=C(\NC(=O)c2ccccc2)C(=O)NNC(=O)CCN2CCOCC2)cc1,"inconclusive: 14.7 µM [inhibitor, partial curve, poor fit]",
Cc1ccccc1C(=O)NC(CC(C)C)C(=O)Nc1ccc(F)c([N+](=O)[O-])c1 (stereo not given),"inconclusive: 11.7 µM [inhibitor, single point]",
O=C(COc1ccccc1)OCC(=O)c1c[nH]c2ccccc12,"inconclusive: 18.5 µM [inhibitor, single point]",
Cn1c(SCC(=O)NCC2CCCO2)nnc1-c1ccc(S(=O)(=O)N2CCCC2)cc1 (stereo not given),"inconclusive: 1.47 µM [inhibitor, full curve, poor fit]",
CCCCCc1c(C)nc(SCC(=O)O)[nH]c1=O,"inconclusive: 10.4 µM [inhibitor, single point]",
CCN(CC)CCCNC(=S)N1CCN(c2nc(-c3ccc(F)cc3)cs2)CC1,inactive,
CCn1c(Sc2nc(C)nc3scc(-c4cccs4)c23)n[nH]c1=O,active: 7.38 µM,
COc1ccc(Nc2oc(-c3ccccc3Cl)nc2C#N)cc1,"inconclusive: 18.5 µM [inhibitor, single point]",
CCOc1ccccc1OCC(=O)Nc1cccc(S(=O)(=O)N2CCCCCC2)c1,active: 13.1 µM,
CC(NC(=O)CSC(=S)N1CCCC1)c1ccc(S(N)(=O)=O)cc1 (stereo not given),"inconclusive: 2.08 µM [inhibitor, single point]",
COc1cc(/C=C/c2cc(C(=O)O)c3ccccc3n2)cc(OC)c1O,inactive,
CCN(c1cccc(C)c1)S(=O)(=O)c1ccc2c(c1)oc(=O)n2C,"inconclusive: 18.5 µM [inhibitor, single point]",

# 21 of the compounds above, bar-delimited:
SMILES | Potency | activity change, negative = inhibition
O=C1c2ccccc2C(Nc2ccc3c(c2)OCO3)N1Cc1ccc2c(c1)OCO2 (stereo not given) | active: 3.29 µM | 
CCN(C(=O)CSc1nnc(-c2c[nH]c3ccccc23)n1C1CC1)C1CCS(=O)(=O)C1 (stereo not given) | inconclusive: 18.5 µM [inhibitor, single point] | 
CCCCCCn1c(Br)nc2c1c(=O)n(C)c(=O)n2C | inconclusive: 6.57 µM [inhibitor, partial curve, poor fit] | 
NC(=O)CC(NC(=O)Cc1cccc2ccccc12)c1ccc(NCCN2CCCC2)c([N+](=O)[O-])c1 (stereo not given) | inconclusive: 11.7 µM [inhibitor, partial curve, poor fit] | 
CCOc1ccc(NC(=O)C2CC(=O)N(Cc3ccco3)C2)cc1 (stereo not given) | inactive | 
COc1cc(SC)ccc1C(=O)OCC(=O)NC1CCCCC1 | inactive | 
Cn1c(SCC(=O)n2c3c(c4ccccc42)CCCC3)nnc1-c1ccccc1 | inconclusive: 13.1 µM [inhibitor, single point] | 
COc1ccccc1-c1cc(C(=O)Nc2cc(C)nn2-c2ccccc2)no1 | inconclusive: 11.7 µM [inhibitor, single point] | 
Cc1ccc(C)c(SCC(=O)Nc2cc(S(=O)(=O)N3CCOCC3)ccc2C)c1 | inconclusive: 10.4 µM [inhibitor, single point] | 
Cn1c(=O)c2c(ncn2CC(=O)Nc2nccs2)n(C)c1=O | inactive | 
CC(=O)c1ccc(NC(=O)[C@@H]2CCCN2C(=O)OC(C)(C)C)cc1 | inactive | 
COc1ccc(/C=C(\NC(=O)c2ccccc2)C(=O)NNC(=O)CCN2CCOCC2)cc1 | inconclusive: 14.7 µM [inhibitor, partial curve, poor fit] | 
Cc1ccccc1C(=O)NC(CC(C)C)C(=O)Nc1ccc(F)c([N+](=O)[O-])c1 (stereo not given) | inconclusive: 11.7 µM [inhibitor, single point] | 
Cn1c(SCC(=O)NCC2CCCO2)nnc1-c1ccc(S(=O)(=O)N2CCCC2)cc1 (stereo not given) | inconclusive: 1.47 µM [inhibitor, full curve, poor fit] | 
CCCCCc1c(C)nc(SCC(=O)O)[nH]c1=O | inconclusive: 10.4 µM [inhibitor, single point] | 
CCN(CC)CCCNC(=S)N1CCN(c2nc(-c3ccc(F)cc3)cs2)CC1 | inactive | 
COc1ccc(Nc2oc(-c3ccccc3Cl)nc2C#N)cc1 | inconclusive: 18.5 µM [inhibitor, single point] | 
CCOc1ccccc1OCC(=O)Nc1cccc(S(=O)(=O)N2CCCCCC2)c1 | active: 13.1 µM | 
CC(NC(=O)CSC(=S)N1CCCC1)c1ccc(S(N)(=O)=O)cc1 (stereo not given) | inconclusive: 2.08 µM [inhibitor, single point] | 
COc1cc(/C=C/c2cc(C(=O)O)c3ccccc3n2)cc(OC)c1O | inactive | 
CCN(c1cccc(C)c1)S(=O)(=O)c1ccc2c(c1)oc(=O)n2C | inconclusive: 18.5 µM [inhibitor, single point] | 

# (continued)

SMILES,Potency,"activity change, negative = inhibition"
CCCCN(C(=O)c1cc(-c2ccco2)nc2ccccc12)c1c(N)n(CCCC)c(=O)[nH]c1=O,"inconclusive: 1.85 µM [inhibitor, partial curve, poor fit]",
Cc1nn(-c2ccccc2)c(C)c1/C=N/N1CCN(c2ccccn2)CC1,"inconclusive: 9.28 µM [inhibitor, single point]",
COc1cccc(C(=O)NCCS(=O)(=O)NC(C)CCc2ccccc2)c1 (stereo not given),"inconclusive: 18.5 µM [inhibitor, single point]",
CC(C)CCNC(=O)CCC(=O)NNc1nc2ccccc2c2nc(-c3ccccc3)nn12,active: 10.4 µM,
CCNC(=S)N=Nc1c(O)[nH]c2ccc(C(C)C)cc12,"inconclusive: 11.7 µM [inhibitor, single point]",
CCCCCn1c(SCC(=O)OCC)nc2cc(C(=O)NCc3ccco3)ccc2c1=O,inactive,
Cc1nc2ccccc2c2oc(C(=O)NCCN3CCCCC3C)cc12 (stereo not given),"inconclusive: 16.5 µM [inhibitor, single point]",
Cc1ccc(C)c(/C=N/Nc2ccccn2)c1,inactive,
COc1ccc(OC2C(=O)N(Cc3ccc(F)cc3)C2c2ccc(OC)c(OC)c2)cc1 (stereo not given),"inconclusive: 2.94 µM [inhibitor, full curve, poor fit]",
Cc1cc(C)nc(-n2nc(C)cc2NC(=O)CNC2CCCCC2)n1,,inactive: 4.54% [at 5.75 µM]
CCOc1cccc(-c2c(C(=O)N/N=C/c3sccc3C)nnn2-c2nonc2N)c1,"inconclusive: 10.4 µM [inhibitor, single point]",
Cc1cc(C)nc(SCc2nnc(SCC(=O)Nc3ccc(C)c(C)c3)n2Cc2ccco2)n1,active: 13.1 µM,
CN1CCN(CC(O)COC(c2ccccc2)c2ccccc2)CC1 (stereo not given),inactive,
O=C(CSc1nnnn1-c1ccccc1)Nc1ccc(Cl)cc1,"inconclusive: 11.7 µM [inhibitor, single point]",
CCC(=O)N1CCC(C(N)=O)(N2CCCCC2)CC1,"inconclusive: 0.233 µM [inhibitor, single point]",
COC(=O)c1ccc(SCC(=O)N2CCC(C)CC2)c([N+](=O)[O-])c1,"inconclusive: 0.0828 µM [inhibitor, full curve, poor fit]",
COc1ccc(C(=O)NCCS(=O)(=O)NCc2cccs2)cc1,"inconclusive: 11.7 µM [inhibitor, single point]",
O=C(Oc1ccc2c(c1)OCC2=O)c1ccc(Cl)cc1,inactive,
CCOc1ccc2nc(SCC(=O)NCc3ccccc3)[nH]c2c1,"inconclusive: 13.1 µM [inhibitor, single point]",
COc1ccc(N2C(=O)CC(N(CCc3ccc(S(N)(=O)=O)cc3)C(=S)Nc3ccccc3)C2=O)cc1 (stereo not given),"inconclusive: 5.22 µM [inhibitor, partial curve, poor fit]",
CC(C)C(c1nnnn1C1CCCCC1)N1CCCc2ccccc21 (stereo not given),inactive,
CCN(CC)C(=O)CN1C(=O)/C(=C/c2ccccc2)SC1=S,"inconclusive: 9.28 µM [inhibitor, single point]",
